Amino acid sequences for entries named in this document (tags omitted). A change or cut given only in a name is not applied to a line headed by its entry.
UniProt P16220: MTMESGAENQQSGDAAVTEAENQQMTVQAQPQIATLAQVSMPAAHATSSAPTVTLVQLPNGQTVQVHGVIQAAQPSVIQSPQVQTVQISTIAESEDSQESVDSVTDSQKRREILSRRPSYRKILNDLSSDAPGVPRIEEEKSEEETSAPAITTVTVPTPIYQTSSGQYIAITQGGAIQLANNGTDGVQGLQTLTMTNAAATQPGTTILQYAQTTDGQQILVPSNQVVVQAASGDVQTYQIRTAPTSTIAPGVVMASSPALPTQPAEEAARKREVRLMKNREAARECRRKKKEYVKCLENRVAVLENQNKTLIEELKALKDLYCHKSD
UniProt Q13950, whole entry: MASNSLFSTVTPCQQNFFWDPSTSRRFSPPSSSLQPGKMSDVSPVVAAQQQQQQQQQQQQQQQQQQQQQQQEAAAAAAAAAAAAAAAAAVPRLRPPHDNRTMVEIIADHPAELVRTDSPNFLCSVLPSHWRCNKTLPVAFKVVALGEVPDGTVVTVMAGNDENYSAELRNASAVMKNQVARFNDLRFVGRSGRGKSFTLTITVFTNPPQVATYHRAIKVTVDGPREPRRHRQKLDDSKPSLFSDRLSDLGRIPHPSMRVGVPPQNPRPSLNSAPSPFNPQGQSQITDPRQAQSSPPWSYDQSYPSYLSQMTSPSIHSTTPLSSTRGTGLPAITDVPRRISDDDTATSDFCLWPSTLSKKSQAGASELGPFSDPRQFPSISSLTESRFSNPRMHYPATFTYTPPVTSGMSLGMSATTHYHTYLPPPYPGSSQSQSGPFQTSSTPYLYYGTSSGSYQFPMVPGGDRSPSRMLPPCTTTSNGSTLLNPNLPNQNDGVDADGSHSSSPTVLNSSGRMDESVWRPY

In patent US20070078085:

Legend:
[1] = biological target: CREB (endogenous, C4-2B nuclear extract) (Homo sapiens) (UniProt P16220); test: competition with a labelled probe; conditions: unlabeled Mut6 did not compete for the CRE-nuclear protein complex; protein in an extract; variant of hOC CRE wild type probe
[2] = biological target: CREB (endogenous, MG63 nuclear extract) (Homo sapiens) (UniProt P16220); test: EMSA; conditions: protein in an extract; label: 32P 5' end
[3] = biological target: Runx2/AML3 (endogenous, C4-2B or MG63 nuclear extract) (Homo sapiens) (UniProt Q13950); test: EMSA; conditions: no supershift with anti-Runx2 antibody; specificity control; protein in an extract; label: 32P 5' end
[4] = biological target: CREB (endogenous, C4-2B nuclear extract) (Homo sapiens) (UniProt P16220); test: EMSA; conditions: nuclear extract; complex enhanced by ARCaP CM or forskolin, blocked by H-89, competed by unlabeled CRE, supershifted by anti-CREB; poly(dI-dC), 50 mM NaCl …; protein in an extract; label: 32P 5' end

Sequence | binding result [1] | binding result [2] | binding result [3] | binding result [4]
ACCAACCGGCTGAAATCATCTCCTGCC (double strand) [hOC CRE Mut6] | no binding |  |  | 
ACCAACCGGCTGACCTCATCTCCTGCC (double strand) [hOC CRE wild type probe] |  | no binding | no binding | binds

Where cells or extracts were used, other partners may take part. For some of these results: Negatives hold for the conditions tested. For some of these results: Construct, isoform or probe ends are uncertain for at least one entry.
